Laboratory results reported in US20060030524A1, “Treatment of systemic lupus erythematosus by down-regulating the autoimmune response to autoantigens” (Yeda Research and Development Co. Ltd., priority 1998, published 2006).

Chains of the proteins cited; added tags and fusions are not shown. Chains listed by the source or under a name are the forms on record and can include a tag or linker.
UniProt P02340, whole entry: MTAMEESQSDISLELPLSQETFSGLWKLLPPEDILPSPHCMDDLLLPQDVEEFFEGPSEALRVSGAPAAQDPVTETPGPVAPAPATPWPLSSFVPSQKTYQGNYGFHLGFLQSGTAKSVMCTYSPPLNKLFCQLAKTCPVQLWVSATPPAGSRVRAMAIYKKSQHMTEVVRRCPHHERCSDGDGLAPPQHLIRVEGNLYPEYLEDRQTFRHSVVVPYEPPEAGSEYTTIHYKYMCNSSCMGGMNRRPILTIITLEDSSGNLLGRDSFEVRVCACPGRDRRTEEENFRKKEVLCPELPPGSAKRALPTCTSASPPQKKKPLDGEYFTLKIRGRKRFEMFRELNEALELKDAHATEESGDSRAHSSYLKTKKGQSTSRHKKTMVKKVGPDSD
IDI-2 monoclonal antibody (VH/VL) (Mus musculus), one chain, as listed by the source, chain 1 of 2: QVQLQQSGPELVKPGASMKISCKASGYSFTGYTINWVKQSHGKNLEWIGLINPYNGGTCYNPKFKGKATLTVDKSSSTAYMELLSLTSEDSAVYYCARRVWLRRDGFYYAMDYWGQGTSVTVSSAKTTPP
IDI-2 monoclonal antibody (VH/VL) (Mus musculus), one chain, as listed by the source, chain 2 of 2: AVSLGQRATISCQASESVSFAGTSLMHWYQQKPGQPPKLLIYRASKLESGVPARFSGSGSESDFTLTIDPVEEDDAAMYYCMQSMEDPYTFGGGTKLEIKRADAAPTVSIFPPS
IDI-1 monoclonal antibody (VH/VL) (Mus musculus), one chain, as listed by the source, chain 1 of 2: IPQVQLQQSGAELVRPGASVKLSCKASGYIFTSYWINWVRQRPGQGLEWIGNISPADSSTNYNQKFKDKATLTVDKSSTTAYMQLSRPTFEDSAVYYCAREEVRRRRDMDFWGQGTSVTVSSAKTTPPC
IDI-1 monoclonal antibody (VH/VL) (Mus musculus), one chain, as listed by the source, chain 2 of 2: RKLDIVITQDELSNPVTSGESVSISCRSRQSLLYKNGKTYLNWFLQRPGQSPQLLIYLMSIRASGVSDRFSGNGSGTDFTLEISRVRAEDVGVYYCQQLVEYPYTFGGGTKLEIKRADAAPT

Assays:
Test in all cases: EMSA
[1] = tested on: IDI-1 monoclonal antibody (VH/VL) (Mus musculus); conditions: bound less well than dG; purified native protein; protein details: hybridoma mAb, variable regions only listed; single-stranded DNA
[2] = tested on: IDI-2 monoclonal antibody (VH/VL) (Mus musculus); conditions: bound less well than dG; purified native protein; protein details: hybridoma mAb, variable regions only listed; single-stranded DNA
[3] = target: p53 (Mus musculus) (UniProt P02340); conditions: bound less well than dG; purified recombinant protein; protein details: expressed in E. coli BL21(DE3); single-stranded DNA

Measured: binding result

AAAAAAAAAAAAAAAAAAAA [oligo dA 20-mer]
binds more weakly: [1] | [2] | [3]

TTTTTTTTTTTTTTTTTTTT [oligo dT 20-mer]
binds more weakly: [1] | [2] | [3]

A weaker result is weaker than the reference pair of the same experiment. For part of these data: The exact form of at least one protein or probe is not confirmed.
